Assay results taken from publication PMC12097018.
Results are given in words; binding and its absence hold for the method and conditions named. Binding seen in cells or lysates may run through a third protein. Some entries that bind do so weakly or less than the wild type. Values belong to the molecule of their own block, whether it stands above or below them.

Protein sequences, listed by entry. Tags and fused reporters are not part of them.
UniProt Q09472: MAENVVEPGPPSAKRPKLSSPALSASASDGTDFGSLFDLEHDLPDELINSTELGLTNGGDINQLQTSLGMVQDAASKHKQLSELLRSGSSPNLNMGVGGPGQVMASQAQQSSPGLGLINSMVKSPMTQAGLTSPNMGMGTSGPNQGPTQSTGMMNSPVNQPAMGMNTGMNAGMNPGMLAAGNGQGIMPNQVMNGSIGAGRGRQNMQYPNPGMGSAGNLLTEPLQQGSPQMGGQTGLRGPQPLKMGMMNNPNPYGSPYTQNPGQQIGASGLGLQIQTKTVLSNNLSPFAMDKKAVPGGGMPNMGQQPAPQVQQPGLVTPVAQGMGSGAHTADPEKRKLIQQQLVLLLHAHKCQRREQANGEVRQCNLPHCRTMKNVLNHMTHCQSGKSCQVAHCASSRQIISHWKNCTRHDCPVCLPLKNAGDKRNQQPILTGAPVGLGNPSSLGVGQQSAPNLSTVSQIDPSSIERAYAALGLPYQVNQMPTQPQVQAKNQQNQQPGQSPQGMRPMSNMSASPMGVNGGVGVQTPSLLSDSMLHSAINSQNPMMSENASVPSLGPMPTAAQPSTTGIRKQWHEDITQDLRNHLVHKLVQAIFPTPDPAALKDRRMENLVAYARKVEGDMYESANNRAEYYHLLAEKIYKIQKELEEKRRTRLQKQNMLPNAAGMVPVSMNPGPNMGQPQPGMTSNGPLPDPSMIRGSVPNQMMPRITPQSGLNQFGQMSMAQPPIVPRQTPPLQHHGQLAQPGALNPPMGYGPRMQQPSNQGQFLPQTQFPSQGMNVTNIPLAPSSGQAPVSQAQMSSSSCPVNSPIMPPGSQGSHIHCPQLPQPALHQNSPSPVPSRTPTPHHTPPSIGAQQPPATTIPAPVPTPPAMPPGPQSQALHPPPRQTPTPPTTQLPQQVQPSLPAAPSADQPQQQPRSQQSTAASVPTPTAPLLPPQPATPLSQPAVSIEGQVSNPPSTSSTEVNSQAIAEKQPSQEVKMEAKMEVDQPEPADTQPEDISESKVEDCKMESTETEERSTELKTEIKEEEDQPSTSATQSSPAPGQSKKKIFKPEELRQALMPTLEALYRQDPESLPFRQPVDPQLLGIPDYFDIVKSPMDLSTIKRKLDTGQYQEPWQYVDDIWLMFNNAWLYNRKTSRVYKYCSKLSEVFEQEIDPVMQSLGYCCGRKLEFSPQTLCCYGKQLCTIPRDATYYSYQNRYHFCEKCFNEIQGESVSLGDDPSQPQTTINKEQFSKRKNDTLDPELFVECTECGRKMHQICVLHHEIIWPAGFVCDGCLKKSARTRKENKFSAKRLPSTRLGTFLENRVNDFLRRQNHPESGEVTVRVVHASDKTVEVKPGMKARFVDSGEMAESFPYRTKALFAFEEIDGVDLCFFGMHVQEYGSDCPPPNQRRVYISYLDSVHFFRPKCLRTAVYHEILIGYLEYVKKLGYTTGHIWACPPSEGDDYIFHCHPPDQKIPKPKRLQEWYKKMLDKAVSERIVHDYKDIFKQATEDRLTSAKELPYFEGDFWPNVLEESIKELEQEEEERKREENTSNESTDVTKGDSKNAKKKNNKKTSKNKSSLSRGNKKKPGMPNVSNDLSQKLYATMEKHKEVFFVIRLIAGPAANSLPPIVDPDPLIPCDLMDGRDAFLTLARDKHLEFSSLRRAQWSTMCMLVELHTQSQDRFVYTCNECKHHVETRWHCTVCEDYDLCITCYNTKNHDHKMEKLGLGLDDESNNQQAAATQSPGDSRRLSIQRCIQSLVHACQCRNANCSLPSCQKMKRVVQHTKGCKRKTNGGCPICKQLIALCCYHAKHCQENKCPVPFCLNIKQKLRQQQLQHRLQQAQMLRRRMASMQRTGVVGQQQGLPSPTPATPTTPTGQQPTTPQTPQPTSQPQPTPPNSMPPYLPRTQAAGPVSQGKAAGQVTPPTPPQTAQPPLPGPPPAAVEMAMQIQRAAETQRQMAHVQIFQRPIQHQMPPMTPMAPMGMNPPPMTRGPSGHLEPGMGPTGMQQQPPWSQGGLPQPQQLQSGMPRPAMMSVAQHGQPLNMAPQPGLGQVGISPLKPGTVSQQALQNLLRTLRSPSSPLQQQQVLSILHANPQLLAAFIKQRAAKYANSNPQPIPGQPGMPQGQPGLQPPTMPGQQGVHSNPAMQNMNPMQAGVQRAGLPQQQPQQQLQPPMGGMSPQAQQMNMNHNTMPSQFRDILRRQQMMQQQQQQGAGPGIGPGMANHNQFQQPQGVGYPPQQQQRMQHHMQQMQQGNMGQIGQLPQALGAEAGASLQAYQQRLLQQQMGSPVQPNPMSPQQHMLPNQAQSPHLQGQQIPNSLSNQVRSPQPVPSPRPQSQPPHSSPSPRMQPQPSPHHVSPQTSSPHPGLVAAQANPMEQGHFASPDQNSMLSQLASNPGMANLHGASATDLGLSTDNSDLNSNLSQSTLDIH

Legend:
[1] = target: T1, SEI1 (full length), expressed from plasmid in HEK293T cells (human) (UniProt Q9UHV2); test: co-IP; HEK293T cells co-transfected with SEI1 and PAF1, CDC73 or p300 plasmid; agarose-immobilized antibody at 4 °C overnight, six washes, immunoblot
T1 sequence: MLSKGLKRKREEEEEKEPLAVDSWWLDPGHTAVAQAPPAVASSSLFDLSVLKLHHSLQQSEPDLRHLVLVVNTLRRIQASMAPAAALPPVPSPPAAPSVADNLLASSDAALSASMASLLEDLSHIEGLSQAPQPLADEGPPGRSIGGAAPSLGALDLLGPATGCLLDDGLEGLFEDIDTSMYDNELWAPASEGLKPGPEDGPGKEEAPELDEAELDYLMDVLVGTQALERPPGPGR

[2] = target: T1, SEI1 (full length), expressed from plasmid in HEK293T cells (human); test: pull-down; HA-tagged protein from transfected HEK293T lysate held on HA beads, then incubated with lysates of cells transfected with CDC73, PAF1 or p300 plasmid; immunoblot; only the target purified
[3] = target: T2, SEI1 (SERTA domain-containing protein 1), endogenous in myeloma cells (human (endogenous in ARH-77 or IM-9)) (UniProt Q9UHV2); test: co-IP; endogenous proteins; lysates of ARH-77 or IM-9 cells treated with melphalan or bortezomib; agarose-immobilized anti-SEI1, PAF1, CDC73 or p300 antibody at 4 °C overnight, six washes, immunoblot; IgG as control
T2 sequence: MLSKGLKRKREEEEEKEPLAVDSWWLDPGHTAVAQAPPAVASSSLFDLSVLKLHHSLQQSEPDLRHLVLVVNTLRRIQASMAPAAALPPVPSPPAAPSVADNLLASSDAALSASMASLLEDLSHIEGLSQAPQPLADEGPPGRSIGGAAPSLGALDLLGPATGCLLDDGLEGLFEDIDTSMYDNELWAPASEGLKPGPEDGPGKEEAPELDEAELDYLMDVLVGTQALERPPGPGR

[4] = target: p300, endogenous in myeloma cells (human (endogenous in ARH-77 or IM-9)) (UniProt Q09472); test: as above
[5] = target: MYC‐p300, expressed from plasmid in HEK293T cells (UniProt Q09472); test: co-IP; HEK293T cells co-transfected with SEI1 and PAF1, CDC73 or p300 plasmid; agarose-immobilized antibody at 4 °C overnight, six washes, immunoblot

binding [1]: binds
binding [2]: binds
Molecule: MYC‐p300, expressed from plasmid in HEK293T cells (from UniProt Q09472 1-2414)

binding [3]: binds
Molecule: p300, endogenous in myeloma cells (from UniProt Q09472 1-2414)

binding [4]: binds
B1: SEI1 (SERTA domain-containing protein 1), endogenous in myeloma cells (protein, UniProt Q9UHV2 1-236)
chain: MLSKGLKRKREEEEEKEPLAVDSWWLDPGHTAVAQAPPAVASSSLFDLSVLKLHHSLQQSEPDLRHLVLVVNTLRRIQASMAPAAALPPVPSPPAAPSVADNLLASSDAALSASMASLLEDLSHIEGLSQAPQPLADEGPPGRSIGGAAPSLGALDLLGPATGCLLDDGLEGLFEDIDTSMYDNELWAPASEGLKPGPEDGPGKEEAPELDEAELDYLMDVLVGTQALERPPGPGR

binding [5]: binds
B2: SEI1 (full length), expressed from plasmid in HEK293T cells (protein, UniProt Q9UHV2 1-236)
chain: MLSKGLKRKREEEEEKEPLAVDSWWLDPGHTAVAQAPPAVASSSLFDLSVLKLHHSLQQSEPDLRHLVLVVNTLRRIQASMAPAAALPPVPSPPAAPSVADNLLASSDAALSASMASLLEDLSHIEGLSQAPQPLADEGPPGRSIGGAAPSLGALDLLGPATGCLLDDGLEGLFEDIDTSMYDNELWAPASEGLKPGPEDGPGKEEAPELDEAELDYLMDVLVGTQALERPPGPGR
